# Laboratory results: PubChem BioAssay AID2685 (National Center for Advancing Translational Sciences (NCATS), 2010)
# The list shows a part of the results. Shown are side measurements of this screen, not its main read-out; they come without a call. Most of these compounds were active or inconclusive in the main read-out, so they are no random draw. The note in brackets gives the kind of curve behind each potency; many fits are weak.
# Experiment: qHTS Assay for Lipid Storage Modulators in Drosophila S3 Cells;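 as to cell number change: cells counted by Cell Tracker Red CMTPX staining in the red channel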
# Settings: BODIPY lipid droplet fluorescence, 18-24 h; for cell number change: measured here: cell count max response, cells fed with added oleic acid
# Summary of the method: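 Drosophila S3 cells loaded with oleic acid (400 uM, as added) and compounds at several concentrations; lipid droplets imaged by 488-nm laser-scanning cytometry, 500–530 nm intensity and object ratio to cell channel. Percent activity normalized to 20 uM Triacsin C.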
# [1] = measured here: cell number channel AC50, cells fed with added oleic acid
# [2] = measured here: lipid fluorescence (Fed channel) AC50, cells fed with added oleic acid
SMILES,cell number change [%],AC50 [1],AC50 [2]
COc1cccc(/C=C/C(=O)OCC(=O)Nc2ccc(Cl)cn2)c1,30.1,"29.1 µM [rising, single point]",
CCOCCCN(C)C1CCN(C(=O)c2oc3ccccc3c2NC(=O)COc2ccc(F)cc2)CC1,39.2,"1.64 µM [rising, full curve]",
COc1ccc(C(=O)NN2CCOCC2)cc1,21.8,,"16.4 µM [rising, single point]"
C=CCN(C(=O)OC(C)(C)C)S(=O)(=O)NCc1ccccc1,-16.4,,"29.1 µM [rising, single point]"
Cc1ccc(NC2CCCN(C(=O)c3ccc4[nH]ccc4c3)C2)cc1C (centres undefined),11.2,,
COc1ccccc1N=Nc1ccc(O)c2ncccc12,-53.9,"18.4 µM [falling, single point]","14.6 µM [falling, partial curve, poor fit]"
Clc1ncnc2scc(-c3ccccc3)c12,,"2.59 µM [falling, partial curve]","6.51 µM [falling, single point]"
Cc1cc(C)c2nc(SCCc3ccccc3)nc(C)c2c1,,"1.3 µM [rising, partial curve]","0.651 µM [rising, full curve]"
O=C(CSc1nnc(-c2ccccc2F)o1)NC1CCCCC1,37.1,"23.1 µM [rising, partial curve]","2.06 µM [rising, partial curve, poor fit]"
O=C(Nc1nccs1)c1ccc(Cl)s1,-7.28,,"0.13 µM [falling, full curve, poor fit]"
CCCCCCSc1nnc2[nH]c(=O)cc(N)n12,16.1,,"16.4 µM [rising, single point]"
CCCCOC(=O)c1ccc(S(N)(=O)=O)o1,-26,,"0.291 µM [falling, full curve, poor fit]"
Cc1cc(C)cc(N=c2c([N+](=O)[O-])nn(-c3ccc(Cl)cc3)n2O)c1,-78,"18.4 µM [falling, single point]","14.6 µM [falling, partial curve]"
COc1ccc(-n2ncc(Cl)c(Cl)c2=O)cc1,,,"6.51 µM [rising, single point]"
COc1ccc(S(=O)(=O)Nc2ccc(-n3cnnn3)cc2)cc1[N+](=O)[O-],12,,"14.6 µM [rising, partial curve, poor fit]"
Cc1ccc(SCC(=O)NCCSC(C)(C)C)cc1,-14.9,,"0.0517 µM [falling, full curve, poor fit]"
Cc1ccc(CNC(=O)CS(=O)(=O)CC(=O)O)cc1,-64.2,"3.66 µM [falling, full curve]","18.4 µM [falling, single point]"
Fc1ccc2[nH]c3c(N4CCN(C5CCCCC5)CC4)ncnc3c2c1,-17.1,,"16.4 µM [falling, partial curve]"
CC(C)CNS(=O)(=O)c1ccc(CCC(=O)N2CCN(c3ccc(F)cc3)CC2)cc1,-23.2,,"0.461 µM [falling, full curve]"
O=C(NCCSc1ccc(Br)cc1)c1ccc2nc[nH]c2c1,8.67,,
CSc1ccccc1C(=O)Nc1ccccc1C(=O)N1CCCC1,3.69,"6.51 µM [falling, single point]",

# Some of these compounds in order of SMILES length, ascending.
SMILES,cell number change [%],AC50 [1],AC50 [2]
COc1ccc(C(=O)NN2CCOCC2)cc1,21.8,,"16.4 µM [rising, single point]"
Cc1ccc(SCC(=O)NCCSC(C)(C)C)cc1,-14.9,,"0.0517 µM [falling, full curve, poor fit]"
COc1ccc(S(=O)(=O)Nc2ccc(-n3cnnn3)cc2)cc1[N+](=O)[O-],12,,"14.6 µM [rising, partial curve, poor fit]"
CCOCCCN(C)C1CCN(C(=O)c2oc3ccccc3c2NC(=O)COc2ccc(F)cc2)CC1,39.2,"1.64 µM [rising, full curve]",

# Next part.

SMILES,cell number change [%],AC50 [1],AC50 [2]
Cc1cccc(NC(=O)CSc2ccc(-c3ccccn3)nn2)c1C,11,,"0.231 µM [rising, partial curve, poor fit]"
CCOc1ccc(CNCCN2CCCC2)cc1,,,"16.4 µM [falling, single point]"
CCN(c1ccccc1)S(=O)(=O)c1ccc(C(=O)Nc2nnc(CSC)o2)cc1,-34.2,"0.00517 µM [falling, full curve, poor fit]",
O=C(NCC1CCCO1)c1cn(-c2ccccc2)nc1-c1ccc(F)cc1 (centres undefined),40.8,"29.1 µM [rising, single point]","23.1 µM [rising, partial curve, poor fit]"
CCCC(=O)c1cc2c(cc1NC(=O)c1ccccc1F)OCCO2,19.5,"1.16 µM [rising, partial curve, poor fit]",
CCCCn1c(SCC(=O)Nc2cc(C)on2)nnc1-c1cccs1,4.05,,"0.259 µM [rising, full curve, poor fit]"
COc1ccc(-c2csc(NC(=O)CN3C(=O)CCC3=O)n2)c(OC)c1,-17.3,,"16.4 µM [falling, single point]"
COc1ccc([N+](=O)[O-])cc1NC(=O)COC(C)=O,-11.8,,
Cc1cc(C)nc(NC(=O)Cc2ccc([N+](=O)[O-])cc2)c1,-53.4,"29.1 µM [falling, single point]","11.6 µM [rising, partial curve]"
COc1ccc(N2CCN(C(=O)C3CCC(Cn4c(=S)[nH]c5ccccc5c4=O)CC3)CC2)cc1 (centres undefined),-32.5,"18.4 µM [falling, single point]","0.206 µM [rising, partial curve]"
Cn1nc(C(=O)OCC(=O)Nc2ccc3ccccc3c2)c2ccccc2c1=O,30.3,,
Cc1cc(NC(=O)C(C)SCC(=O)Nc2ccc(Br)cc2Br)no1 (centres undefined),25.4,,
CCCCn1c(N)c(N(CCOC)C(=O)c2cccc(S(=O)(=O)N(CC)c3ccccc3)c2)c(=O)[nH]c1=O,75,"0.146 µM [falling, full curve, poor fit]",
Cc1ccccc1NC(=O)c1cc(S(=O)(=O)N2CCOCC2)cn1C,18.4,,"29.1 µM [rising, single point]"
N#C/C(=C\c1ccc(OCc2ccc(C(=O)O)cc2)cc1)C(=O)NCc1ccccc1,-14.7,,"29.1 µM [falling, single point]"
COc1cc(N2CN=c3s/c(=C\c4ccccn4)c(=O)n3C2)cc(OC)c1OC,22.2,"0.116 µM [rising, full curve]",
Cc1cc(C(=O)O)c(CCCN)s1,-5.07,"0.82 µM [rising, partial curve]",
COCCCNC(=O)c1ccc(CS(=O)(=O)Cc2cccc(C)c2)o1,13.4,,"29.1 µM [rising, single point]"
CN(C)/C=C(/C(=O)c1ccc(Cl)cc1)S(=O)(=O)c1ccccc1,,"0.0206 µM [falling, full curve, poor fit]",
CCOc1ccc(-n2cnc3c(=O)[nH]c(N)nc32)cc1,16.9,,
Cc1ccc2oc(C(=O)N(Cc3nccn3C)C(C)C)c(C)c2c1,-14.1,,"13 µM [falling, partial curve, poor fit]"

# A stretch from further up, as a working copy:
SMILES,cell number change [%],AC50 [1],AC50 [2]
CCOCCCN(C)C1CCN(C(=O)c2oc3ccccc3c2NC(=O)COc2ccc(F)cc2)CC1,39.2,"1.64 µM [rising, full curve]",
COc1ccc(C(=O)NN2CCOCC2)cc1,21.8,,"16.4 µM [rising, single point]"

# Going on with the list:

SMILES,cell number change [%],AC50 [1],AC50 [2]
Nc1nonc1-c1nc2ccccc2n1CC(=O)N1CCCCC1,22.5,"0.461 µM [falling, single point]","0.58 µM [falling, single point]"
CCCC[C@]12Cc3cc(OC)c(OC)cc3C(O1)C1=C(CC3(CCCCC3)OC1=O)O2,-3.99,,
O=C(CCCc1nc2ccccc2s1)NC1CCOC1=O (centres undefined),-18.4,,"0.326 µM [falling, single point]"
COc1ccc(C(C)C)cc1S(=O)(=O)Nc1ccc(Cl)cn1,32.1,"10.3 µM [rising, partial curve, poor fit]",
Cc1onc(-c2ccccc2Cl)c1C(=O)NCc1cccnc1,25.1,,
COC(=O)c1cn(-c2ccccc2)nc1-c1cccnc1,93.1,"6.51 µM [rising, partial curve]","0.146 µM [rising, single point]"
CCOC(=O)C(NC(C)=O)(Nc1ccc(S(=O)(=O)Nc2cc(C)nc(C)n2)cc1)C(F)(F)F (centres undefined),-31.6,"7.31 µM [falling, partial curve, poor fit]","0.411 µM [falling, full curve]"
Cc1ccc(C)c(OCC(=O)Nc2cc(C(=O)O)cc(C(=O)O)c2)c1,-13.9,,"0.259 µM [falling, full curve, poor fit]"
Cc1ccc(NC(=O)NC2CCCCCCC2)c(C)c1,2.6,,"14.6 µM [falling, partial curve, poor fit]"
CCC(Oc1ccccc1)C(=O)NCc1ccc(S(N)(=O)=O)cc1 (centres undefined),-14.8,,"0.651 µM [falling, full curve, poor fit]"
O=C(c1ccccc1)N1CCCOC1c1ccccc1 (centres undefined),-6.66,,
CCOc1nc(N=C(N)N)nc2c(C)cccc12,144,"20.6 µM [rising, partial curve]",
CCc1nc2ccc(Cc3ccc4nc(CC)[nH]c4c3)cc2[nH]1,-10.8,,"3.26 µM [rising, single point]"
Cc1cc(C)n2c(SCC(=O)N(CC(C)C)c3c(N)n(CC(C)C)c(=O)[nH]c3=O)nnc2n1,69.6,,"29.1 µM [rising, single point]"
COc1c(C)cc(S(=O)(=O)N2CCOCC2)c(C)c1C,11.5,,"7.31 µM [rising, partial curve]"
CCCOc1ccc(-c2nc(SCc3ccccc3)[nH]c(=O)c2C#N)cc1OC,-13.4,,
COc1cccc(C2/C(=C(\O)c3ccc4c(c3)OCO4)C(=O)C(=O)N2CCN(C)C)c1OC (centres undefined),122,"25.9 µM [rising, partial curve]",
Cc1ccc(N2C(=O)CC(Nc3cccc4ccccc34)C2=O)cc1 (centres undefined),-3.1,,"6.51 µM [falling, single point]"
CCCN=Cc1sc2ccc(OCC)cc2c1O,-18.3,,"10.3 µM [rising, partial curve, poor fit]"
